Results of single-concentration screens

Chains of the proteins cited; added tags and fusions are not shown. Residues count along the entry.
UniProt Q8IDJ8, 1-583: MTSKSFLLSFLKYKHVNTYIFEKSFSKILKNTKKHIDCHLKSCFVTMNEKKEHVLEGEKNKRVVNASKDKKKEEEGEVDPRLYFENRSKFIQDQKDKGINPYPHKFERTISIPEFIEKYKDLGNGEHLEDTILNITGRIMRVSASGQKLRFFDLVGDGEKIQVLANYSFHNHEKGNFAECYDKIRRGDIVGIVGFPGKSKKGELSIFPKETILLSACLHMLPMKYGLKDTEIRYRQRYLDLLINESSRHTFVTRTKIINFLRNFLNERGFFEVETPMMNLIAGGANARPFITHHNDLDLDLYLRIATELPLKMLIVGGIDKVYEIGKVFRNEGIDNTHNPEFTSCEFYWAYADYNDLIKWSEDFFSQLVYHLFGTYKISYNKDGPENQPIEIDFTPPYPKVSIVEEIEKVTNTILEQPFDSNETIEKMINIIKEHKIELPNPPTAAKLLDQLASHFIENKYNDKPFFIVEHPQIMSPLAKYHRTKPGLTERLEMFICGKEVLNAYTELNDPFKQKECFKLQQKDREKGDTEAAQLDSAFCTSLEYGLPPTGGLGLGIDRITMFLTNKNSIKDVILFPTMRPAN
UniProt A4I591, 1-473: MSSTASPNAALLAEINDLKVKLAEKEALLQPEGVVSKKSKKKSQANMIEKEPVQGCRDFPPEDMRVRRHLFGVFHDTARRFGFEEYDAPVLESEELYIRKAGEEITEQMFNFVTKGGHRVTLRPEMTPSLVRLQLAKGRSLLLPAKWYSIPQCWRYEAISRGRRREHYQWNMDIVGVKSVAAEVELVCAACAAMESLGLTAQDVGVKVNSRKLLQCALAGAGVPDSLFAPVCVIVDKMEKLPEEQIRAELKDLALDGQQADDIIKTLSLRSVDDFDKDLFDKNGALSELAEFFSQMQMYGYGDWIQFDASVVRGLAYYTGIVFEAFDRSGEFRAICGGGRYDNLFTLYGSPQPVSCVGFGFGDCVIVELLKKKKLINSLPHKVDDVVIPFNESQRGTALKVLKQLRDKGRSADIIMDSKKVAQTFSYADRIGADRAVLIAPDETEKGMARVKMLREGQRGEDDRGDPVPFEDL
UniProt Q4DA54, 1-478: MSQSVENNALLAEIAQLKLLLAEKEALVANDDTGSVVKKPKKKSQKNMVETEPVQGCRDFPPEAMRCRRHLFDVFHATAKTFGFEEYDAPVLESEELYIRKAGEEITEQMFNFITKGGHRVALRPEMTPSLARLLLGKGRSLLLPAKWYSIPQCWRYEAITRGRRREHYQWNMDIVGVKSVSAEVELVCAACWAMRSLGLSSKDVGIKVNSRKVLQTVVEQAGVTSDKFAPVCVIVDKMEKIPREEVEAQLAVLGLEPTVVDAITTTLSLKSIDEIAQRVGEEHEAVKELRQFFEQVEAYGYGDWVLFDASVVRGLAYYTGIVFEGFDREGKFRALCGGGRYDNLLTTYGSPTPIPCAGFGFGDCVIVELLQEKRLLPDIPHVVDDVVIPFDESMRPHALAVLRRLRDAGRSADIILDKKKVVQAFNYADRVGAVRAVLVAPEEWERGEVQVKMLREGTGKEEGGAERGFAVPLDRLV
UniProt P9WPC5, whole entry: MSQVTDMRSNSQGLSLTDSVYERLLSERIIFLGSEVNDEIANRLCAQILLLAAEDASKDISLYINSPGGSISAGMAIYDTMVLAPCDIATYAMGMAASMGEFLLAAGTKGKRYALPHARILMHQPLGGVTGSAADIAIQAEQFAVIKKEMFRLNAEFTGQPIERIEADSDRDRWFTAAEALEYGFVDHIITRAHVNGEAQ
UniProt P9WPC3, whole entry partner: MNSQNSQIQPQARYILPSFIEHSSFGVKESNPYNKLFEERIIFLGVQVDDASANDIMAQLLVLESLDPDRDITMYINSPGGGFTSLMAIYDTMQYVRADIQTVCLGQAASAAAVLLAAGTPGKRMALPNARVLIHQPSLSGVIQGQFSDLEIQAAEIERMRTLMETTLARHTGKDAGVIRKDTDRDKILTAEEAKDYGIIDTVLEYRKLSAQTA

Each number is a percent effect as filed. How 0% and 100% were set is not recorded. Most values in the screen are low, and negative values occur. The compounds are a random part of those screened. A dash means the value is not listed here; it may have been measured.

A: 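Enzyme assay of the cytosolic lysyl-tRNA synthetase in 384-well plates, read by luminescence. Target: Lysine-tRNA ligase, Plasmodium falciparum 3D7 (UniProt Q8IDJ8). Tested at 30 µM. Higher reads as stronger inhibition, judged from the few compounds that gave an IC50. Of about 69,000 compounds tested this way, about 49 (0.071%) reached 50% or more in at least one test.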
B: 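Histidine-tRNA ligase, Leishmania infantum (UniProt A4I591). Enzyme assay of histidyl-tRNA synthetase; the read-out is not stated. Concentration: 30 µM. Higher reads as stronger inhibition (inferred: compounds with an IC50 in retests scored well above the rest). The assay is labelled LdHisRS but filed under L. infantum. Of about 69,000 compounds tested this way, about 410 (0.6%) reached 50% or more in at least one test.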
C: 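Histidine-tRNA ligase, Trypanosoma cruzi CL Brener (UniProt Q4DA54). Enzyme assay of histidyl-tRNA synthetase; the read-out is not stated. Tested at 30 µM. The record gives no direction; compounds that gave an IC50 in retests scored well above the rest, so higher reads as stronger inhibition. About 69,000 compounds were tested under these conditions; 0.045% (about 31) showed 50% or more at least once.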
D: 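Cell assay of Leishmania donovani living inside macrophages; the read-out is not stated. Tested at 30 µM. Higher reads as stronger inhibition (inferred: compounds with an IC50 in retests scored well above the rest). About 69,000 compounds were tested under these conditions; 1.5% (about 1,000) showed 50% or more at least once.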
E: 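ClpP1P2, Mycobacterium tuberculosis (UniProt P9WPC5 and UniProt P9WPC3). Protease assay of ClpP1P2, read by the AMC dye that it sets free. Concentration: 50 µM. Higher reads as stronger inhibition, judged from the few compounds that gave an IC50. Most other retested compounds had strongly negative values. About 69,000 compounds were tested under these conditions; 0.015% (about 10) showed 50% or more at least once.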

For CCCN(C)C(=O)c1ccc2c(c1)[nH]c(=O)n2CCOCC the result was A: -2.544%; B: 11.54%; C: -1.667%; D: 18.08%; E: -15.39%.
For CO[C@H]1CN(S(=O)(=O)c2ccc(C)cc2)C[C@@]12CCCO2 the result was A: 1.693%; B: 11.35%; C: 11.65%; D: 15.1%; E: -4.801%.
For Cc1cccc(C(=O)N2CCCn3c(CN4CCCCC4)nnc3C2)c1 the result was A: 0.362%; B: 5%; C: 3.061%; D: 48.22%; E: -6.607%.
For COc1ccccc1CN1CC[C@]2(C[C@@H](OC)CO2)C1 the result was A: 3.523%; B: 23.08%; C: 2.439%; E: -0.869%.
For COc1ccc(CNCc2c(C)nn(C)c2N2CCOCC2)cc1 the result was A: 6.336%; B: 13.33%; C: 1.132%; D: 28.89%; E: 9.807%.
For COc1ccc(Cl)cc1CCNC(=O)NCc1noc(C)n1 the result was A: 5.989%; B: 20.35%; C: 5.752%; D: 8.95%; E: -7.024%.
For CSCCCN1C[C@H](NC(=O)c2cnn(C)c2)[C@@H](C2CC2)C1 the result was A: 1.045%; B: 6.557%; C: 3.004%; D: 32.89%; E: -7.979%.
For Cc1nnc([C@@H]2C[C@H]3CN(C4CCC4)C[C@H]3O2)[nH]1 the result was A: 8.615%; B: 15.52%; C: 3.797%; E: 8.161%.
For NC(Cc1nc(-c2ccccc2)no1)c1ccccc1 (centres unmarked) the result was A: 4.1%; B: 10.11%; C: 7.772%; E: 0.7915%.
For COCC(=O)N1CC[C@]2(O)CCN(Cc3cccnc3OC)C[C@@H]2C1 the result was A: 3.202%; B: 17.14%; C: 4.082%; E: 13.47%.
For Cc1nnc(N2CCCC3(CN(Cc4ccc(F)cc4)CCO3)C2)o1 (centres unmarked) the result was A: 1.499%; B: 9.677%; C: 7.018%; E: -7.575%.
For Cc1nc(CN2C(=O)CCC23CCN(c2ncccn2)CC3)cs1.O=C(O)C(F)(F)F the result was D: 20.91%.
For CN1CC(c2cc(O)nc(NCc3cccc(F)c3)n2)CC1=O (centres unmarked) the result was A: 3.971%; B: 15.62%; C: 8.511%; D: 6.721%; E: 2.655%.
For Cc1cn2c(n1)CCC(NC(=O)CCCOCc1ccccc1)C2 (centres unmarked) the result was A: 4.048%; B: -0.8929%; C: 10%; D: -5.529%; E: -5.495%.
For Cc1cccc2c(=O)n(C(C)Cc3cccnc3)cnc12 (centres unmarked) the result was A: 4.198%; B: 15.87%; C: 6.667%; D: 13.05%; E: -11.93%.
For COCCN1CCC2(CCCN(c3ncccn3)C2)C1 (centres unmarked) the result was A: -2.181%; B: 5.109%; C: -6.011%; E: 2.592%.
For Cn1cc(CN2CCC[C@]3(C[C@@H](Oc4ccccn4)CO3)C2)cn1.O=C(O)C(F)(F)F.O=C(O)C(F)(F)F the result was D: 24.56%.
For COc1cccc(CC2CN(C3CC(C)(C)NC(C)(C)C3)CCO2)c1 (centres unmarked) the result was A: -6.774%; B: 22.35%; C: -4.036%; D: -2.966%; E: 3.654%.
For O=C(Cc1cn2ccsc2n1)N1CCCC(n2cccn2)C1 (centres unmarked) the result was A: 0.7831%; B: 6.481%; C: 6.745%; D: 3.578%; E: -8.565%.
For COc1ccc(NC(=O)C(C)(C)C)cc1OCc1cccnc1 the result was A: 3.742%; B: 17.02%; C: 5.202%; D: -30.77%; E: 4.592%.
For Cc1cnn(CC2CCCCN2C(=O)c2c(C)noc2C)c1 (centres unmarked) the result was A: -0.3175%; B: 9.649%; C: 2.89%; D: -20.39%; E: 13.98%.
For CC(=O)N1CCN(C(=O)NC(C)Cn2ccnc2)CC1 (centres unmarked) the result was A: 0.5815%; B: 6.218%; C: 2.762%; D: 12.08%; E: -3.862%.
For CCCOCCn1ncc(N2CCCC2)cc1=O the result was A: 5.45%; B: 14.88%; C: 8.163%; D: -1.332%; E: -6.615%.
For O=C1C(NS(=O)(=O)c2cc(F)cc(F)c2)CCN1Cc1ccccc1 (centres unmarked) the result was A: 6.34%; B: 3.371%; C: 3.008%; D: 0.6693%; E: 2.553%.
For CCN(C)C[C@@H]1CN(C(=O)c2cc(C(F)(F)F)n[nH]2)C[C@@H]1CO the result was A: 4.726%; B: 10.59%; C: 5.025%; D: -4.438%; E: 3.111%.
For Cn1cc(CN2CCCC3(CCCCN3S(C)(=O)=O)C2)cn1 (centres unmarked) the result was A: 6.087%; B: 6.422%; C: 5.882%; E: -1.547%.
For O=C1Nc2ccccc2C12CCCN(Cc1ccc3c(c1)OCCO3)C2 (centres unmarked) the result was A: 6.64%; B: 10.83%; C: 3.865%; D: 8.796%; E: -19.75%.

Some entries from above, unchanged:

SMILES,A,B,C,D,E
Cc1cccc2c(=O)n(C(C)Cc3cccnc3)cnc12 (centres unmarked),4.198%,15.87%,6.667%,13.05%,-11.93%
NC(Cc1nc(-c2ccccc2)no1)c1ccccc1 (centres unmarked),4.1%,10.11%,7.772%,-,0.7915%

Measurements from “University of Dundee, Small-Polar-MMV Screening Library” (2021), ChEMBL document CHEMBL3988442.